From ChEMBL document CHEMBL3988442, “University of Dundee, Small-Polar-MMV Screening Library” (2021).

Each number is a percent effect as filed. The controls that fix the scale are not given in the record; negative values are as filed. Compounds were drawn at random from those tested, without regard to their results. Two or more numbers in one place are separate tests of the same structure; such repeats can differ widely. A dash means the value is not listed here; it may have been measured.

T. brucei: 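Whole-parasite assay of Trypanosoma brucei over 72 hours; the read-out is not stated. Concentration: 30 µM. Higher reads as stronger inhibition (inferred: compounds with an IC50 in retests scored well above the rest). Values scatter widely below zero; nearly all retest evidence comes from the higher of the two concentrations used. Size under these conditions: about 64,000 compounds, about 940 of them at 50% or above in at least one test.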
Leishmania in macrophages: 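Cell assay of Leishmania donovani living inside macrophages; the read-out is not stated. Concentration: 30 µM. Direction is inferred from retests: higher values go with stronger inhibition. Of about 69,000 compounds tested this way, about 1,000 (1.5%) reached 50% or more in at least one test.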

SMILES | T. brucei | Leishmania in macrophages
CC1COc2ccccc2N1C(=O)c1ccc(=O)n(C)c1 (stereo not shown) | -14.99 | -5.854
[H][C@]12CCCC(OCc3cccnc3)[C@@]1([H])CN(C(=O)c1cnc(C)cn1)C2 (stereo partly shown) | -17.84 | -14.6
Cl.c1ccc(CCNc2cccc(C3CCCNC3)n2)cc1 (stereo not shown) | 66.04 | 71.14
O=C(NCCc1csc(-c2ncccn2)n1)c1cnn2c1CCCC2 | 4.267 | 5.935
O=C(C1CC1)N1CCC(c2nc(O)c3c(n2)CCN(C2CCCC2)C3)C1 (stereo not shown) | -32.09 | 14.09
CC1(C)OCC2(CO1)CN(S(=O)(=O)c1ccc(Cl)s1)C2 | 11.66 | 46.65 & 2.441
CCC(CC)c1cc(CNC(=O)N2CCOC(C)C2)on1 (stereo not shown) | -30.59 | 3.048
CC(C)c1nn(C)c(N2CCOCC2)c1CN[C@H](C)CO | 7.743 | 4.891
CC(C)Cc1noc(CN(C)C(=O)C2COc3ccccc3C2)n1 (stereo not shown) | -102.6 | 35.14
Cn1cc(CNc2ccc(CCO)cc2)c(-c2ccncc2)n1 | -1.652 | 0.1684
CCc1nnc(CNCC2CCN(CC(O)c3ccccc3)CC2)o1 (stereo not shown) | -0.5017 | 17.5
Cc1cn2c(n1)C(CNCc1ccc(C)s1)CCC2 (stereo not shown) | -3.779 | -5.269
CC(=O)NCC1CCC2(CCN(c3nccc(C4CCCC4)n3)CC2)O1 (stereo not shown) | -17.49 | 3.551
CN(CC(=O)N1CCCC1c1noc(C2CC2)n1)Cc1ccccc1 (stereo not shown) | -8.469 | 13.58
COCC1CC2(CCN(Cc3ccc(C)o3)CC2)CN1C(C)C.O=C(O)C(F)(F)F.O=C(O)C(F)(F)F (stereo not shown) | -12.15 | 2.154
COCCNC(=O)C(C)n1cc(Br)cn1 (stereo not shown) | -28.33 | 30.54
c1cncc(OCCNC2Cc3ccccc3C2)c1 | -29.03 | 18.04
O=C(c1ccc2c(c1)CCC2)N1CC[C@H](O)[C@]2(CCCO2)C1 | -32.11 | -18.44 & 0.06731
COCCOC1CCN(C(C(=O)O)c2c(Cl)cccc2OC)CC1 (stereo not shown) | 11.78 | 12.51
Cc1nc(C)c2c(n1)CCN(Cc1ccsc1)CC2 | -188.5 | 7.989
CN1CC2(CCN(C(=O)COc3ccc(Cl)cc3Cl)CC2)OC1=O | -37.69 | -20.78
CC(C)N1CCC2(CC1)CC(NCc1ccccn1)c1ccccc1O2.O=C(O)C(F)(F)F.O=C(O)C(F)(F)F.O=C(O)C(F)(F)F (stereo not shown) | 2.75 | 22.15
[H][C@]12CC[C@]([H])(CN(C(=O)CCc3c(C)nn(C)c3C)C1)N(CCOC)C2 | -11.49 | 22.62
CC(=O)Nc1cc(C(=O)N2CCOCC2c2ccc(C)o2)ccc1F (stereo not shown) | -12.3 | 17.23
O=C(O)C(F)(F)F.[H][C@@]12CCN(Cc3ccco3)[C@@]1([H])CCC(=O)N2 | 9.827 | 12.47
COc1ccc2c(c1)CN(CC1CC1)C(=O)CCN2CC(C)(C)O | -17.86 | 16.48
O=C(O)C(F)(F)F.[H][C@@]12CN(C(=O)c3ccoc3)C[C@@]1([H])N(Cc1cccnc1)C(=O)CO2 | -15.62 | 15.67 & 13.71
CCOc1nnc(CN(Cc2ccccc2)CC(O)c2ccco2)s1 (stereo not shown) | -30.28 | 19.6
O=C(O)C(F)(F)F.[H][C@@]12COC[C@]1([H])[C@@H](OCC1CCOCC1)CN2Cc1ccoc1 | -13.64 | 8.491
CC(C)CC(=O)N1CCCC1c1ccsc1 (stereo not shown) | -14.66 | 24.77
Cc1cnn(CC2CCCN2Cc2nnc(C3CC3)n2C)c1 (stereo not shown) | - | 1.575
Clc1ccccc1Cn1cc(CNC2CCc3ncnn3C2)cn1 (stereo not shown) | - | -0.1841
O=C(Cc1cccs1)NCC1(O)CCSC1 (stereo not shown) | -27.59 | 7.797
[H][C@]12CC[C@]([H])(CN(Cc3cnc(-c4cccc(OC)c4)s3)C1)N(C)C2=O | -10.2 | 18.88
Cc1ccccc1C(C)NC(=O)CSCC#N (stereo not shown) | -29.2 | -34.46
CCCc1nc(N(C)Cc2cnc(NC)nc2)c2cnn(C)c2n1 | -156.9 | 8.053
Cc1csc(N2CCN(C(=O)C(C)n3cncn3)CC2)n1 (stereo not shown) | -12.15 | 11.05
COC(=O)N1CCCN(Cn2nc(C)c(Br)c2C)CC1 | -12.96 | -25.9
O=C1c2cnc(N3CCOCC3)nc2CN1C1CCS(=O)(=O)C1 (stereo not shown) | - | -42.49
[H][C@@]12COC[C@]1(COC)CN(C(=O)C1CC(F)(F)C1)C2 | -27.01 | -1.939
CCC(=O)NCc1cc(C2CC2)n(C2CCCC2)n1 | -39.7 | -2.559 & -11.17
Cc1csc(C2CCCCN2C(=O)CN(C)C2CC2)n1 (stereo not shown) | -1.22 | 4.394
CCCNC(=O)c1cc(Br)cc(S(=O)(=O)N2CCOCC2)c1F | -17.26 | 8.161
NC(=O)c1cccc(CNC/C=C/c2ccccc2)c1 | -22.69 | -3.92
COc1ccc(C(=O)O)c(OCC(=O)NC(C)c2ccccc2)c1 (stereo not shown) | -7.539 | 24.18
O=C(NCCCNc1ccc(C(F)(F)F)cn1)c1ccc(F)cc1F | - | 33.63
Cc1n[nH]c(C)c1CCN(C)c1ccc(-c2nc(C3CC3)no2)cn1 | -27.07 | 22.75
[H][C@@]12CS(=O)(=O)C[C@]1([H])N(Cc1cnc(C)nc1)CCN2C(=O)N(C)C | -42.48 | -0.2677
Cc1cc(C)cc(CNC(c2ccccc2)c2nccn2C)c1 (stereo not shown) | - | 35.61
[H][C@@]12CN(C3CCOCC3)C[C@]1([H])N(CCCc1ccc(OC)cc1)C(=O)O2 | -9.526 | -0.5309
C[C@@H](O)CNc1c(NCc2ccco2)c(=O)c1=O | -22.77 | -2.669
Cc1nn(C)c(N2CCOCC2)c1CNC(C)c1cccs1 (stereo not shown) | -18.57 | -7.908
Cc1nc(C2CCCN(C(=O)c3ccnc(N(C)C)c3)C2)no1 (stereo not shown) | -25.99 | 0.4168
Cc1cnc(NCc2cnn(C)c2)nc1-c1cnn(C)c1 | 11.95 | 14.68
[H][C@@]12CCN(S(=O)(=O)c3ccccc3)C[C@]1(C(=O)NC)CCO2 | -21.81 | -18.12
O=C(C1CN(c2ncc(F)cn2)CC12CCOCC2)N1CCOCC1 (stereo not shown) | - | 20.64
Cc1c(C(=O)O)cnn1-c1ccc(-c2nc(C(C)C)no2)cn1 | 3.071 | 13.62

For reference, 6 entries once more:

* CN1CC2(CCN(C(=O)COc3ccc(Cl)cc3Cl)CC2)OC1=O : T. brucei: -37.69%; Leishmania in macrophages: -20.78%
* COc1ccc(C(=O)O)c(OCC(=O)NC(C)c2ccccc2)c1 (stereo not shown) : T. brucei: -7.539%; Leishmania in macrophages: 24.18%
* Cc1csc(N2CCN(C(=O)C(C)n3cncn3)CC2)n1 (stereo not shown) : T. brucei: -12.15%; Leishmania in macrophages: 11.05%
* [H][C@]12CCCC(OCc3cccnc3)[C@@]1([H])CN(C(=O)c1cnc(C)cn1)C2 (stereo partly shown) : T. brucei: -17.84%; Leishmania in macrophages: -14.6%
* COCCNC(=O)C(C)n1cc(Br)cn1 (stereo not shown) : T. brucei: -28.33%; Leishmania in macrophages: 30.54%
* Cc1cnn(CC2CCCN2Cc2nnc(C3CC3)n2C)c1 (stereo not shown) : Leishmania in macrophages: 1.575%